Reference: paper PMC5998066
These are yes or no findings as the source states them, for the method shown. Binding seen in cells or lysates may run through a third protein. Some results given as binding are weak or reduced against the parent protein; the word gives no strength. For some assays here: Tags and fused reporters may be left off the sequences shown. Values belong to the binder of their own block, whether it stands above or below them.

Sequences of proteins named here, by UniProt entry; tags and fusion partners are left off.
UniProt Q86WV6: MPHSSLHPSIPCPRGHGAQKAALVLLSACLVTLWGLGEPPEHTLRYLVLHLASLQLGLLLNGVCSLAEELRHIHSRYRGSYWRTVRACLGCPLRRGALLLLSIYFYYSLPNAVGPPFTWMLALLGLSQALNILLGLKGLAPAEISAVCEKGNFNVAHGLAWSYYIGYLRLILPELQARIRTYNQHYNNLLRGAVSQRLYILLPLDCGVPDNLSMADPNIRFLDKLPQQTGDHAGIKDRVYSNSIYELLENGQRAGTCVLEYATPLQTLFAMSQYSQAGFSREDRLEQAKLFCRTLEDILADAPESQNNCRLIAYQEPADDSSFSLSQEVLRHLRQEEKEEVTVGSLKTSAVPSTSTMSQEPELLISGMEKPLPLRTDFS
UniProt Q969V5: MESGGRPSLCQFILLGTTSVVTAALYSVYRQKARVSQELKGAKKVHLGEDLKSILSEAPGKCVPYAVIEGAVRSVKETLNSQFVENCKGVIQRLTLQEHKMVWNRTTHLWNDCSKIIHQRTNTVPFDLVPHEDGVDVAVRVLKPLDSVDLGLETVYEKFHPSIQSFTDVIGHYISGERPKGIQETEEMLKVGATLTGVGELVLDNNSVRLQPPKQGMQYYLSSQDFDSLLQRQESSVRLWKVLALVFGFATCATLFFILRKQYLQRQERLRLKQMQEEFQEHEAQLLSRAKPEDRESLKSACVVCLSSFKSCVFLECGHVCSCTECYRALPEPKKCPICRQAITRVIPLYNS
UniProt Q13049: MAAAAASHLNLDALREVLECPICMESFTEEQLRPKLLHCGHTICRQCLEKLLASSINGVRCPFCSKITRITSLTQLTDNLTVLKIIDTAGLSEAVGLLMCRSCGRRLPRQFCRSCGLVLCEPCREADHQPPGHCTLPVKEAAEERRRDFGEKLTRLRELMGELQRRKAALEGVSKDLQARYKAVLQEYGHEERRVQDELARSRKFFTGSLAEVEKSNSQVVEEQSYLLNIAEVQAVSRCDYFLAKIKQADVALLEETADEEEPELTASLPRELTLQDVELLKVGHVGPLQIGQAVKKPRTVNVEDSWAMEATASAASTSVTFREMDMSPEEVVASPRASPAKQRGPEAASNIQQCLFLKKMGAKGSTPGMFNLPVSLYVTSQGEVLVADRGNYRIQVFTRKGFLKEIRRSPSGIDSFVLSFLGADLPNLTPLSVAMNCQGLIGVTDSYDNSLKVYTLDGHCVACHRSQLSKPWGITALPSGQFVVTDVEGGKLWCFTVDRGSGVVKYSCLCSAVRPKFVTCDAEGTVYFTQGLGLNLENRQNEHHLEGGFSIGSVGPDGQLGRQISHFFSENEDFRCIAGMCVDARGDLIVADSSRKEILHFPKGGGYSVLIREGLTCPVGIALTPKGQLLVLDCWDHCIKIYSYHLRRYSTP

Key:
[1] = molecular target: STING (endogenous, human trophoblasts) (human (endogenous in primary trophoblasts)), Q86WV6; experiment: co-IP; endogenous proteins; WT primary human trophoblasts after cGAMP stimulation; conditions: remark: other sources report otherwise
[2] = molecular target: STING (endogenous, human trophoblasts) (human (endogenous in primary trophoblasts)) (UniProt Q86WV6); experiment: co-IP; endogenous proteins; UBXN3B-/- primary human trophoblasts after cGAMP stimulation
MUL1 = MUL1 (UniProt Q969V5); experiment: co-IP; MUL1 and UBXN3B overexpressed in HEK293 cells; beads and tags not stated; no figure
Myc-TRIM32 (human) = Myc-TRIM32 (human) (UniProt Q13049); experiment: co-IP; HEK293 cells co-transfected with FLAG-UBXN3B and Myc-TRIM plasmids; anti-Myc magnetic beads; immunoblot anti-Myc and anti-FLAG
Myc-TRIM56 (human) = molecular target: T1, Myc-TRIM56 (human) (UniProt Q9BRZ2); experiment: as above
T1 sequence: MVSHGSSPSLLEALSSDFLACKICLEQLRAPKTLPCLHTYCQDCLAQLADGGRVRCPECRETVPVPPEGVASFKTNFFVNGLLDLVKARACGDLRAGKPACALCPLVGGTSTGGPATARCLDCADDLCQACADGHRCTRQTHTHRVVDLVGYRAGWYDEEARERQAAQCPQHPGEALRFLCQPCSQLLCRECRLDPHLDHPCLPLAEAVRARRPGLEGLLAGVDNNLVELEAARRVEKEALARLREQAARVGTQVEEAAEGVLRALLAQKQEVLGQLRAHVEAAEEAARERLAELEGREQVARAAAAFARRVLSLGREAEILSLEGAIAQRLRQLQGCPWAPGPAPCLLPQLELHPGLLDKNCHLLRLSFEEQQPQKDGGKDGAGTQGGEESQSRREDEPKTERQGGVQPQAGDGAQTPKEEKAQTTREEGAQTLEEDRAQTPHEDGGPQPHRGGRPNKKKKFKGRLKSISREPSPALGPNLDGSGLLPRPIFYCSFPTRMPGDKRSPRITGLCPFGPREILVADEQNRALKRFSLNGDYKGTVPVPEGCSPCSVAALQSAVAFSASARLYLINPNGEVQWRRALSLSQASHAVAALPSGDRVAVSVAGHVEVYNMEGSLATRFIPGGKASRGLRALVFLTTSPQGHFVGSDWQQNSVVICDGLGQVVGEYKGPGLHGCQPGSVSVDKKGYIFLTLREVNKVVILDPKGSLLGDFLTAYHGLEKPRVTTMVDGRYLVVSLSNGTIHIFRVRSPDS

binding [1]: binds
B1: TBK1 (endogenous, human trophoblasts), Q9UHD2 1-729 (enzyme)
chain: MQSTSNHLWLLSDILGQGATANVFRGRHKKTGDLFAIKVFNNISFLRPVDVQMREFEVLKKLNHKNIVKLFAIEEETTTRHKVLIMEFCPCGSLYTVLEEPSNAYGLPESEFLIVLRDVVGGMNHLRENGIVHRDIKPGNIMRVIGEDGQSVYKLTDFGAARELEDDEQFVSLYGTEEYLHPDMYERAVLRKDHQKKYGATVDLWSIGVTFYHAATGSLPFRPFEGPRRNKEVMYKIITGKPSGAISGVQKAENGPIDWSGDMPVSCSLSRGLQVLLTPVLANILEADQEKCWGFDQFFAETSDILHRMVIHVFSLQQMTAHKIYIHSYNTATIFHELVYKQTKIISSNQELIYEGRRLVLEPGRLAQHFPKTTEENPIFVVSREPLNTIGLIYEKISLPKVHPRYDLDGDASMAKAITGVVCYACRIASTLLLYQELMRKGIRWLIELIKDDYNETVHKKTEVVITLDFCIRNIEKTVKVYEKLMKINLEAAELGEISDIHTKLLRLSSSQGTIETSLQDIDSRLSPGGSLADAWAHQEGTHPKDRNVEKLQVLLNCMTEIYYQFKKDKAERRLAYNEEQIHKFDKQKLYYHATKAMTHFTDECVKKYEAFLNKSEEWIRKMLHLRKQLLSLTNQCFDIEEEVSKYQEYTNELQETLPQKMFTASSGIKHTMTPIYPSSNTLVEMTLGMKKLKEEMEGVVKELAENNHILERFGSLTMDGGLRNVDCL

B2: TBK1 (endogenous, human trophoblasts) (enzyme, UniProt Q9UHD2 1-729)
chain: MQSTSNHLWLLSDILGQGATANVFRGRHKKTGDLFAIKVFNNISFLRPVDVQMREFEVLKKLNHKNIVKLFAIEEETTTRHKVLIMEFCPCGSLYTVLEEPSNAYGLPESEFLIVLRDVVGGMNHLRENGIVHRDIKPGNIMRVIGEDGQSVYKLTDFGAARELEDDEQFVSLYGTEEYLHPDMYERAVLRKDHQKKYGATVDLWSIGVTFYHAATGSLPFRPFEGPRRNKEVMYKIITGKPSGAISGVQKAENGPIDWSGDMPVSCSLSRGLQVLLTPVLANILEADQEKCWGFDQFFAETSDILHRMVIHVFSLQQMTAHKIYIHSYNTATIFHELVYKQTKIISSNQELIYEGRRLVLEPGRLAQHFPKTTEENPIFVVSREPLNTIGLIYEKISLPKVHPRYDLDGDASMAKAITGVVCYACRIASTLLLYQELMRKGIRWLIELIKDDYNETVHKKTEVVITLDFCIRNIEKTVKVYEKLMKINLEAAELGEISDIHTKLLRLSSSQGTIETSLQDIDSRLSPGGSLADAWAHQEGTHPKDRNVEKLQVLLNCMTEIYYQFKKDKAERRLAYNEEQIHKFDKQKLYYHATKAMTHFTDECVKKYEAFLNKSEEWIRKMLHLRKQLLSLTNQCFDIEEEVSKYQEYTNELQETLPQKMFTASSGIKHTMTPIYPSSNTLVEMTLGMKKLKEEMEGVVKELAENNHILERFGSLTMDGGLRNVDCL
binding [2]: no binding (condition: in UBXN3B^−/− cells)

binding (MUL1): no binding
binding (Myc-TRIM32 (human)): no binding
binding (Myc-TRIM56 (human)): binds
B3: FLAG-UBXN3B (protein, UniProt Q96CS3 1-445)
chain: MAAPEERDLTQEQTEKLLQFQDLTGIESMDQCRHTLEQHNWNIEAAVQDRLNEQEGVPSVFNPPPSRPLQVNTADHRIYSYVVSRPQPRGLLGWGYYLIMLPFRFTYYTILDIFRFALRFIRPDPRSRVTDPVGDIVSFMHSFEEKYGRAHPVFYQGTYSQALNDAKRELRFLLVYLHGDDHQDSDEFCRNTLCAPEVISLINTRMLFWACSTNKPEGYRVSQALRENTYPFLAMIMLKDRRMTVVGRLEGLIQPDDLINQLTFIMDANQTYLVSERLEREERNQTQVLRQQQDEAYLASLRADQEKERKKREERERKRRKEEEVQQQKLAEERRRQNLQEEKERKLECLPPEPSPDDPESVKIIFKLPNDSRVERRFHFSQSLTVIHDFLFSLKESPEKFQIEANFPRRVLPCIPSEEWPNPPTLQEAGLSHTEVLFVQDLTDE
